{"source": "paper PMC7322566", "molecular_target": "T1, LIMP2 (human (endogenous in SH-SY5Y)) (UniProt Q14108)", "T1 sequence": "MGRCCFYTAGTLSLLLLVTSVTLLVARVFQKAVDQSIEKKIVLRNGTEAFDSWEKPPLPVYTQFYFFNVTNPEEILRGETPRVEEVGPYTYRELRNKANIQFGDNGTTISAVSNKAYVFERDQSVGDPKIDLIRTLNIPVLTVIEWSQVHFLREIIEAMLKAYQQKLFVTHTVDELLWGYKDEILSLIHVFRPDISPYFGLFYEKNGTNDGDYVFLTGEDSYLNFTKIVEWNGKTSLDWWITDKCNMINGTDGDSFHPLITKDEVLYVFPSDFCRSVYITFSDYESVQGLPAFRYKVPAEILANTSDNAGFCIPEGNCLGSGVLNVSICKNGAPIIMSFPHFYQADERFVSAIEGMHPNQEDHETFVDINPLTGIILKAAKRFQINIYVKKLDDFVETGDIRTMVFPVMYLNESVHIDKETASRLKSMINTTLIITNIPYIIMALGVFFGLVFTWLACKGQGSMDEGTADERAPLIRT", "test": "co-IP; LIMP2 immunoprecipitated with LIMP2 antibody from fresh lysates of SH-SY5Y cells, untreated or treated with 1 μM thapsigargin (Thg) for 1 h; input (2% of lysate) and immunoprecipitates blotted for GCase and LIMP2; GCase expressed as a ratio to LIMP2", "note": "Results are given in words; binding and its absence hold for the method and conditions named. Binding seen in cells or lysates may run through a third protein. Some entries that bind do so weakly or less than the wild type. Sequences can lack the tags named with a protein.", "data": [{"binder": "glucocerebrosidase (GCase) (enzyme, UniProt P04062 40-536) ARPCIPKSFGYSSVVCVCNATYCDSFDPPTFPALGTFSRYESTRSGRRMELSMGPIQANHTGTGLLLTLQPEQKFQKVKGFGGAMTDAAALNILALSPPAQNLLLKSYFSEEGIGYNIIRVPMASCDFSIRTYTYADTPDDFQLHNFSLPEEDTKLKIPLIHRALQLAQRPVSLLASPWTSPTWLKTNGAVNGKGSLKGQPGDIYHQTWARYFVKFLDAYAEHKLQFWAVTAENEPSAGLLSGYPFQCLGFTPEHQRDFIARDLGPTLANSTHHNVRLLMLDDQRLLLPHWAKVVLTDPEAAKYVHGIAVHWYLDFLAPAKATLGETHRLFPNTMLFASEACVGSKFWEQSVRLGSWDRGMQYSHSIITNLLYHVVGWTDWNLALNPEGGPNWVRNFVDSPIIVDITKDTFYKQPMFYHLGHFSKFIPEGSQRVGLVASQKNDLDAVALMHPDGSAVVVVLNRSSKDVPLTIKDPAVGFLETISPGYSIHTYLWRRQ", "values": [{"measurement": "binding", "value": "binds"}]}]}
